Source: PubChem BioAssay AID686938 (Drosophila RNAi Screening Center, 2013)
The deposit covers about 23,000 reagents; below is a random part of those that have a named target and a result. Over the whole deposit, 75 (0.33%) were called active. 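Raw plate signals without normalisation; calls rest on plate z-scores that were not deposited; ratio present for only 364 wells.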 The numbers tell different reagents against one gene apart. A plus sign joins genes that one reagent is predicted to hit. Not given: the dose of the treatment.

Aim: 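Fly genes required for calcium entry once internal stores are emptied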 (primary screen)
Cell system: Drosophila S2R+ cells
Reagents: long dsRNA against Drosophila genes, about 0.25 µg dsRNA per well, roughly 10,000 cells
Duration: 5 days of knock-down before the calcium assay
Challenge: thapsigargin (SERCA pump blocker) to empty calcium stores; entry signal taken 4 min after adding it
Read-out: 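Duplicate raw fluo-4 intensities per well from a plate reader, at rest and four minutes after thapsigargin emptied calcium stores; entry-to-rest ratio filled for only some wells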
Direction: calcium entry signal: higher = stronger calcium signal after store depletion; entry to resting ratio: higher = more calcium entry relative to resting level; resting calcium signal: higher = higher resting calcium signal
Units: calcium entry signal in fluorescence units; resting calcium signal in fluorescence units
Hit rule: 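Called when the plate z-score of the entry-to-rest ratio, mean of duplicates, falls below −3; wells with low overall dye signal (Fmax z below −2) or more than five off-targets excluded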
Calls: active = strongly reduced calcium entry; inactive = no strong reduction

The first 4 records, ahead of the listing:
| predicted target | dsRNA no. | calcium entry signal, replicate 1 | calcium entry signal, replicate 2 | entry to resting ratio | resting calcium signal, replicate 1 | resting calcium signal, replicate 2 | activity call |
| --- | --- | --- | --- | --- | --- | --- | --- |
| gprs (GeneID 36862) | 1 | 5.09e7 | 5.48e7 | – | 2.21e7 | 2.58e7 | inactive |
| Zip99C (GeneID 43533) | 1 | 3.63e7 | 4.31e7 | – | 1.64e7 | 2.08e7 | inactive |
| hui (GeneID 36648) | 1 | 3.90e7 | 4.79e7 | – | 1.76e7 | 2.21e7 | inactive |
| Scsalpha1 (GeneID 38447) | 1 | 4.51e7 | 3.56e7 | – | 3.18e7 | 1.36e7 | inactive |

Results, from the first entry:
| predicted target | dsRNA no. | calcium entry signal, replicate 1 | calcium entry signal, replicate 2 | entry to resting ratio | resting calcium signal, replicate 1 | resting calcium signal, replicate 2 | activity call |
| --- | --- | --- | --- | --- | --- | --- | --- |
| gprs (GeneID 36862) | 1 | 5.09e7 | 5.48e7 | – | 2.21e7 | 2.58e7 | inactive |
| Zip99C (GeneID 43533) | 1 | 3.63e7 | 4.31e7 | – | 1.64e7 | 2.08e7 | inactive |
| hui (GeneID 36648) | 1 | 3.90e7 | 4.79e7 | – | 1.76e7 | 2.21e7 | inactive |
| Scsalpha1 (GeneID 38447) | 1 | 4.51e7 | 3.56e7 | – | 3.18e7 | 1.36e7 | inactive |
| Gnf1 (GeneID 40607) | 1 | 2.56e7 | 3.57e7 | – | 1.69e7 | 2.20e7 | active |
| CG14177 (retired record) (GeneID 39113) | 1 | 3.08e7 | 2.74e7 | – | 1.54e7 | 1.44e7 | inactive |
| CG17751 (GeneID 42336) | 1 | 4.43e7 | 4.21e7 | – | 3.55e7 | 2.07e7 | inactive |
| CG17751 (GeneID 42336) | 2 | 2.73e7 | 3.79e7 | – | 1.28e7 | 1.54e7 | inactive |
| DIP-iota (GeneID 33925) | 1 | 2.51e7 | 2.84e7 | – | 1.36e7 | 1.34e7 | inactive |
| Prp39 (GeneID 43399) | 1 | 4.18e7 | 4.14e7 | – | 1.76e7 | 1.73e7 | inactive |
| Rad1 + Sws1 | 1 | 3.90e7 | 5.54e7 | – | 1.83e7 | 2.21e7 | inactive |
| CG10801 (GeneID 31314) | 1 | 3.21e7 | 6.55e7 | 2.1 | 1.50e7 | 2.64e7 | inactive |
| CG17784 (GeneID 42909) | 1 | 3.77e7 | 5.73e7 | – | 2.07e7 | 2.24e7 | inactive |
| CenB1A (GeneID 42735) | 1 | 4.76e7 | 2.02e7 | – | 2.53e7 | 1.19e7 | inactive |
| CG5653 (GeneID 39024) | 1 | 3.72e7 | 5.10e7 | – | 1.69e7 | 2.28e7 | inactive |
| brv1 (GeneID 40116) | 1 | 2.87e7 | 4.42e7 | – | 1.43e7 | 2.01e7 | inactive |
| CG9641 (GeneID 33502) | 1 | 4.04e7 | – | – | 2.07e7 | – | inactive |
| CG7381 (GeneID 41589) | 1 | 3.51e7 | 4.85e7 | – | 1.60e7 | 1.98e7 | inactive |
| Dmtn (GeneID 40792) | 1 | 3.92e7 | 4.71e7 | – | 1.60e7 | 1.89e7 | inactive |
| Eig71Eg (GeneID 39708) | 1 | 5.79e7 | 6.65e7 | – | 2.44e7 | 2.64e7 | inactive |
| CG14968 (GeneID 38406) | 1 | 2.11e7 | 2.66e7 | – | 1.10e7 | 1.21e7 | inactive |
| Bulli (GeneID 38734) | 1 | 3.27e7 | 5.66e7 | – | 1.59e7 | 2.45e7 | inactive |
| Nup93-1 (GeneID 32350) | 1 | 1.95e7 | 2.38e7 | – | 1.10e7 | 1.25e7 | inactive |
| PGRP-SB2 (GeneID 39869) | 1 | 4.80e7 | 7.15e7 | – | 2.26e7 | 2.77e7 | inactive |
| CG3808 (GeneID 40074) | 1 | 1.78e7 | 3.75e7 | – | 9.92e6 | 1.65e7 | inactive |
| lcs (GeneID 33120) | 1 | 3.62e7 | 3.92e7 | – | 1.77e7 | 1.63e7 | inactive |
| CG32407 (GeneID 38667) | 1 | 1.93e7 | 3.23e7 | – | 9.66e6 | 1.41e7 | inactive |
| ranshi (GeneID 41041) | 1 | 4.92e7 | 3.14e7 | – | 2.26e7 | 1.57e7 | inactive |
| CG16704 (GeneID 33589) | 1 | 3.98e7 | 3.84e7 | – | 1.99e7 | 1.79e7 | inactive |
| nero (GeneID 43740) | 1 | 2.16e7 | 3.07e7 | – | 1.36e7 | 1.53e7 | inactive |
| Galphao (GeneID 36104) | 1 | 4.86e7 | 4.42e7 | – | 2.12e7 | 1.94e7 | inactive |
| caps (GeneID 39493) | 1 | 3.52e7 | 4.61e7 | – | 1.75e7 | 2.06e7 | inactive |
| caps (GeneID 39493) | 2 | 3.87e7 | 5.68e7 | – | 1.89e7 | 3.01e7 | inactive |
| bnk (GeneID 43687) | 1 | 3.83e7 | 5.23e7 | – | 1.90e7 | 2.24e7 | inactive |
| CG10337 (GeneID 35247) | 1 | 5.80e7 | 4.72e7 | – | 2.75e7 | 1.95e7 | inactive |
| TTLL6A (GeneID 37253) | 1 | 4.34e7 | 5.77e7 | – | 1.92e7 | 2.60e7 | inactive |
| Men (GeneID 47173) | 1 | 3.67e7 | 3.85e7 | – | 2.18e7 | 1.96e7 | inactive |
| Men (GeneID 47173) | 2 | 3.78e7 | 5.43e7 | – | 1.87e7 | 2.69e7 | inactive |
| Men (GeneID 47173) | 3 | 2.73e7 | 2.81e7 | – | 1.42e7 | 1.13e7 | inactive |
| CG14269 (GeneID 31312) | 1 | 3.68e7 | 7.05e7 | 2.1 | 1.76e7 | 3.03e7 | inactive |
| CG5404 (GeneID 41901) | 1 | 2.55e7 | 3.54e7 | – | 1.41e7 | 1.82e7 | inactive |
| Parp1 (GeneID 3355109) | 1 | 2.75e7 | 6.61e7 | – | 1.24e7 | 2.95e7 | inactive |
| Parp1 (GeneID 3355109) | 2 | 2.97e7 | 3.24e7 | – | 1.59e7 | 1.42e7 | inactive |
| Parp1 (GeneID 3355109) | 3 | 2.87e7 | 3.12e7 | – | 1.48e7 | 1.35e7 | inactive |
| Hmt4-20 (GeneID 31015) | 1 | 4.34e7 | 5.45e7 | – | 1.93e7 | 2.44e7 | inactive |
| CG14564 (GeneID 40425) | 1 | 3.29e7 | 5.27e7 | – | 1.57e7 | 2.31e7 | inactive |
| CG14564 (GeneID 40425) | 2 | 3.39e7 | 3.28e7 | – | 1.60e7 | 1.62e7 | inactive |
| htl (GeneID 42160) | 1 | 4.21e7 | 3.65e7 | – | 1.88e7 | 1.62e7 | inactive |
| sima (GeneID 43580) | 1 | 3.92e7 | 6.63e7 | – | 2.18e7 | 3.33e7 | inactive |
| sima (GeneID 43580) | 2 | 4.09e7 | 5.12e7 | – | 2.18e7 | 2.39e7 | inactive |
| CG4653 (GeneID 32650) | 1 | 2.34e7 | 4.37e7 | – | 1.15e7 | 2.04e7 | inactive |
| CG4653 (GeneID 32650) | 2 | 2.84e7 | 3.18e7 | – | 1.32e7 | 1.48e7 | inactive |
| nrv1 (GeneID 33952) | 1 | 3.38e7 | – | – | 1.82e7 | – | inactive |
| CG32371 (GeneID 317999) | 1 | 3.29e7 | 5.33e7 | – | 1.70e7 | 2.69e7 | inactive |
| CG9467 (GeneID 41207) | 1 | 3.41e7 | 4.47e7 | – | 1.51e7 | 1.93e7 | inactive |
| CG13044 (GeneID 39795) | 1 | 5.03e7 | 5.94e7 | – | 2.07e7 | 2.58e7 | inactive |
| FIG4 (GeneID 33658) | 1 | 3.70e7 | – | – | 1.72e7 | – | inactive |
| Prim2 (GeneID 44915) | 1 | 3.82e7 | 4.68e7 | – | 1.99e7 | 3.56e7 | inactive |
